Reference: publication PMC5093555
Results are given in words; binding and its absence hold for the method and conditions named. Binding seen in cells or lysates may run through a third protein. Some entries that bind do so weakly or less than the wild type.

Assays:
[1] = target: C1 domain mutated (R77A) PKCα protein fused to eCFP or eYFP (human) (UniProt P17252); assay: FRET or BRET; intermolecular lux-FRET (apparent FRET efficiency at equal donor and acceptor) between co-expressed eCFP and eYFP fusions in living HEK293 cells; Ca^2+ raised by ATP or by ionomycin with extracellular Ca^2+; video or confocal imaging; signal at the plasma membrane; room temperature (20-22 °C), Tyrode
[2] = target: C2 domain of PKCα fused to eCFP or eYFP (human) (UniProt P17252); assay: as above
[3] = target: protein kinase C βII (PKCβ-II) fused to eCFP or eYFP (human) (UniProt P05771); assay: as above
[4] = target: protein kinase Cα (PKCα), wild type, fused to eCFP or eYFP (human) (UniProt P17252); assay: condition: only in the cytosol (not bound to the plasma membrane); FRET or BRET; confocal lux-FRET between co-expressed eCFP and eYFP fusions in living HEK293 cells, ionomycin with raised Ca^2+; region of the cytosol
[5] = target: protein kinase Cα (PKCα), wild type, fused to eCFP or eYFP (human) (UniProt P17252); assay: condition: only membrane accumulation by PMA (1 μM, 20 minutes), without Ca^2+ increase; FRET or BRET; fluorescence lifetime imaging (TCSPC) of the eCFP donor with or without the eYFP acceptor in living HEK cells; membrane accumulation by PMA (1 μM, 20 minutes) without Ca^2+ increase

## C1 domain mutated (R77A) PKCα protein fused to eCFP or eYFP (from UniProt P17252 1-672) (enzyme)
[1]
  binding: binds

## C2 domain of PKCα fused to eCFP or eYFP (from UniProt P17252 154-338) (domain or fragment)
[2]
  binding: binds

## protein kinase C βII (PKCβ-II) fused to eCFP or eYFP (from UniProt P05771-2 1-673) (enzyme)
[3]
  binding: binds

## protein kinase Cα (PKCα), wild type, fused to eCFP or eYFP (from UniProt P17252 1-672) (enzyme)
[4]
  binding: no binding
[5]
  binding: no binding
